Test results published in PubChem BioAssay AID590 (National Center for Advancing Translational Sciences (NCATS), 2007).
Out of some 59,000 compounds screened, about 6,500 (11%) were called active. The shares of active, inactive and inconclusive entries below differ from those in the screen. No stated cut-off is given here; in the data, active means max dye-equivalent concentration above about 10 nM; inconclusive means mostly about 1.1 nM to 9.6 nM; inactive means weaker than that.

assay: qHTS Assay for Spectroscopic Profiling in A350 Spectral Region; details: Compound autofluorescence, 340/450 nm, Alexa 350 dye-equivalents; active compounds read high

Compound	max dye-equivalent concentration
CCCCNS(=O)(=O)c1ccc2nc(SCC(=O)c3ccc(C#N)cc3)[nH]c2c1	inactive
CCOC(=O)N1CCC(NC(=O)C2CCC(CNS(=O)(=O)c3ccc(OC)cc3)CC2)CC1 (stereo unspecified)	inactive
CCn1c(SCC(=O)Nc2cccc(C(C)=O)c2)nnc1C(C)C	inactive
CN1c2ccccc2N(C)C1c1c(O)ccc2ccccc12	active: 14 nM
CCn1c(SCC(=O)OC2CCCCC2)nnc1-c1ccncc1	inconclusive: 3 nM
COC(=O)C1CCN(C(=O)COc2ccc(Cl)cc2)CC1	inconclusive: 1.9 nM
CC(C)Cn1c(N)c(C(=O)NCCN2CCOCC2)c2nc3ccccc3nc21	active: 2800 nM
N#Cc1c(N)n(C2CCCCC2)c2nc3ccccc3nc12	inactive
Cc1nc2cnc(N3CCN(C)CC3)nc2n(CCc2ccccc2)c1=O	inconclusive: 7.9 nM
CCOC(=O)c1[nH]c2ccc(F)cc2c1NC(=O)C1=COCCO1	inconclusive: 3.8 nM
O=C(OCCN1C(=O)CCC1=O)c1ccc(S(=O)(=O)N2CCCCC2)cc1	inconclusive: 1.1 nM
CCOc1cc(C(=O)N2CCc3cc(OC)c(OC)cc3C2)ccc1OC(F)F	inconclusive: 1.9 nM
Cc1ccccc1NC(=O)c1ccccc1O	active: 14 nM
CC(C(=O)OCn1nnc2ccccc2c1=O)N1C(=O)c2ccccc2C1=O (stereo unspecified)	inconclusive: 1.5 nM
CCOc1ccc2[nH]c(=O)c(CN(C(=O)N3CCOCC3)C3CC3)cc2c1	active: 280 nM
COC(=O)c1cc(NC2c3ncccc3C(=O)N2Cc2ccccc2)cc(C(=O)OC)c1 (stereo unspecified)	inconclusive: 6.1 nM
COc1ccc(-c2nnc3ccc(SCC(=O)NCc4ccco4)nn23)cc1OC	inactive
O=C(NC(NC1CCS(=O)(=O)C1)C(=O)c1ccccc1)c1ccc(Cl)cc1 (stereo unspecified)	inconclusive: 2.4 nM
Cc1ccc(-c2nc(-c3nccc4ccccc34)oc2-c2ccccc2)cc1	inconclusive: 1.8 nM
CC(=O)c1cc(C)ccc1OC(=O)c1cccc2nc(C)oc12	inconclusive: 7.4 nM
O=C(CCN1C(=O)CSC1=O)Nc1ccccc1	inactive
CC(C)(C)C1=Nn2c(nnc2-c2ccccn2)SC1	inactive
CCN(CC)c1nc(Nc2ccccc2)nc(Oc2ccc(=O)n(C)n2)n1	inconclusive: 1.4 nM

Compound	max dye-equivalent concentration
O=C(Nc1ccc(N2CCOCC2)c(Cl)c1)c1ccco1	inconclusive: 2.2 nM
O=C(Nc1ccc(N2CCN(Cc3ccccc3Cl)CC2)cc1)c1cccnc1	inconclusive: 9.7 nM
COc1cc2c(cc1OC)C(/C(C#N)=N\O)=NC(C)(C)C2	inactive
COC(=O)c1ccc(N(CC(=O)NC2CCCC2)C(=O)CNC(=O)c2ccco2)cc1	inactive
Cc1cc(NCCCN)nc(-c2ccccc2O)n1	active: 12 nM
CCN(CC)S(=O)(=O)c1ccc2nc(CSc3nnnn3-c3ccc(O)cc3)[nH]c2c1	inconclusive: 4.6 nM
O=C(CN1C(=O)c2cccc3cccc1c23)N1CCN(Cc2ccc3c(c2)OCO3)CC1	active: 14 nM
COc1cc(C2CC(=O)NC3=C2C(=O)CC(C)(C)C3)ccc1O (stereo unspecified)	inactive
Cc1cccc2cc(CN(CCCN3CCOCC3)Cc3nnnn3C(C)(C)C)c(=O)[nH]c12	inconclusive: 2.3 nM
CCCCC(=O)NCCc1cc2c(OC)ccc(OC)c2[nH]c1=O	inconclusive: 8.2 nM
Clc1ccc2nc(CN3CCCCC3)cn2c1	inconclusive: 3.2 nM
O=c1cc(-c2ccccc2)nc(N2CCCCC2)[nH]1	inconclusive: 3.3 nM
Cc1cc(C)c(NC(=O)CN2CCN3CCCC3C2)c(C)c1 (stereo unspecified)	inconclusive: 1.3 nM
O=C(O)COC(=O)Cc1ccccc1Nc1c(Cl)cccc1Cl	inactive
Cc1ccc(-c2[nH]nc3c2C(c2cccnc2)C(C#N)=C(N)O3)cc1 (stereo unspecified)	inconclusive: 1.1 nM
COc1nc(N)nc(N2CCOCC2)n1	inconclusive: 1.9 nM
Fc1ccc(NCc2cn3ccccc3n2)cc1	inconclusive: 1.6 nM
Cc1noc(NS(=O)(=O)c2ccc(NC(=O)C34CCC(CC3)C4)cc2)c1C	inconclusive: 1.5 nM
NCCc1nnc(SCc2ccccc2)o1	inconclusive: 4.8 nM
O=C(Nc1cnccn1)c1ccncc1	inconclusive: 1.1 nM
Cc1cc2nn(-c3cccc4ccccc34)nc2cc1N	active: 150 nM
O=C(Nc1ccccn1)C(NS(=O)(=O)c1cccc2nsnc12)c1ccccc1 (stereo unspecified)	inconclusive: 1.8 nM
CC#C[C@@]1(O)CC[C@@H]2[C@@H]3CCC4=CC(=O)CCC4=C3[C@@H](c3ccc(N(C)C)cc3)C[C@]21C	inactive

Compound	max dye-equivalent concentration
CCCCCNC(=O)c1c(N)n(/N=C/c2ccco2)c2nc3ccccc3nc12	inconclusive: 2.4 nM
COc1ccccc1C(=O)Nc1ccc(-c2nnc(SCC(=O)O)n2C)cc1	inconclusive: 4.9 nM
Cn1c(=O)[nH]c(=O)c2c1nc(NCCCn1ccnc1)n2Cc1cccc(Br)c1	inactive
N#Cc1cccc(-c2nc3cnc(Nc4ccccc4)nc3n(C[C@H]3CCCO3)c2=O)c1	inactive
CCOC(=O)c1[nH]c2ccc(OCC)cc2c1NC(=O)CN1CCCC(C)C1 (stereo unspecified)	active: 48 nM
Cc1ccc(/C=c2\sc3nc(-c4ccco4)nn3c2=O)o1	inconclusive: 6.2 nM
CCc1ccc(NC(=O)N(C2CCC(C)CC2)C2CCN(C(C)=O)CC2)cc1 (stereo unspecified)	inactive
O=C(CC1Nc2ccccc2NC1=O)Nc1ccccc1 (stereo unspecified)	active: 100 nM
Cc1ccc(S(=O)(=O)NCc2ccco2)c(C)c1C	inconclusive: 1.1 nM
O=c1c(-c2ccc(F)cc2)nc2cnc(N3CCOCC3)nc2n1C[C@H]1CCCO1	active: 41 nM
CN[C@@H](c1ccncc1)[C@@H](NC)c1ccncc1	inactive
COc1ccccc1C(=O)NCCn1cc(SCC(=O)NCc2ccco2)c2ccccc21	inactive
O=C(c1ccco1)N1CCN(c2cc(C(F)(F)F)nc3ncnn23)CC1	inconclusive: 1.5 nM
Cc1ccc(-n2c(=O)[nH]cc(C(=O)N3CCc4ccccc43)c2=O)cc1	inconclusive: 9.8 nM
Clc1nc(NCCc2ccccc2)c2ncn(-c3ccccc3)c2n1	inactive
CN(C)Cc1ccc(O)c(CN(C)C)n1	inactive
O=C(CN1CCN(c2ccccn2)CC1)NCc1cccs1	inconclusive: 2.1 nM
COc1ccccc1Nc1nnc(SCC(=O)N2CCCC2=O)s1	inconclusive: 2.1 nM
CCOC(=O)c1cnc(-n2nc(C)cc2C)nc1NCc1ccccc1	inconclusive: 1.2 nM
COC(=O)c1[nH]c2cccc(Cl)c2c1NC(=O)CN1CCN(CCO)CC1	inconclusive: 1.7 nM
COc1ccccc1CNc1ncncc1-c1cccc(NS(C)(=O)=O)c1	inactive
CC(=O)[C@H]1CC[C@@H]2[C@]1(C)CC=C1[C@]23C=C[C@]2(C[C@H](O)CC[C@@]12C)[C@H](C(=O)O)[C@@H]3C(=O)O	inactive
COc1cccc(Cn2c(=O)c(-c3cccc(C#N)c3)nc3cnc(OC)nc32)c1	inconclusive: 3.1 nM

In the list so far, three contain a COOH group:
Compound	max dye-equivalent concentration
O=C(O)COC(=O)Cc1ccccc1Nc1c(Cl)cccc1Cl	inactive
COc1ccccc1C(=O)Nc1ccc(-c2nnc(SCC(=O)O)n2C)cc1	inconclusive: 4.9 nM
CC(=O)[C@H]1CC[C@@H]2[C@]1(C)CC=C1[C@]23C=C[C@]2(C[C@H](O)CC[C@@]12C)[C@H](C(=O)O)[C@@H]3C(=O)O	inactive

The results go on.

Compound	max dye-equivalent concentration
O=C(Nc1ccccc1)c1ccc2nc(-c3ccco3)c(-c3ccco3)nc2c1	inactive
Cc1c(N=C/C=C/c2ccccc2)cnn1C	inconclusive: 2 nM
CCc1ccc2oc(=O)cc(CN3CCOCC3)c2c1	inconclusive: 3.3 nM
Cc1cccc(C)c1OCC(O)CN (stereo unspecified)	inconclusive: 4.8 nM
CCn1c(SCC(=O)NC(C)(C)C)nc(O)cc1=O	active: 19 nM
Cc1ccc(Oc2cc(C)nc(-c3ccccc3O)n2)cc1	inactive
Cn1c(=O)c(=O)n(C)c2cc(S(=O)(=O)N3CCN(c4cccc(C(F)(F)F)c4)CC3)ccc21	inconclusive: 1.3 nM
CCCCCCn1c(CN2CCCC(C)C2)nc2c1c(=O)n(C)c(=O)n2C (stereo unspecified)	inactive
Cc1cccc(-c2c3c(=O)n(C)c(=O)n(C)c3cn2C(C)C)c1	inconclusive: 9.7 nM
O=C(CSc1ncc(-c2ccc(F)cc2)[nH]1)Nc1cccc(O)c1	inactive
CCN(Cc1ccccc1)C(c1ccccn1)c1nnnn1C(C)(C)CC (stereo unspecified)	inconclusive: 1.1 nM
CCCCN(C)CCCNC(=O)c1ccc(N2CCCC2=O)cc1	inconclusive: 9.5 nM
COc1cccc(-c2nccc(NCc3cccnc3)n2)c1	inconclusive: 5.5 nM
COc1ccc(C2=NOC(C(=O)NCc3ccc(F)cc3)C2)cc1OC (stereo unspecified)	inconclusive: 1.1 nM
Cc1ccccc1OCC1Cn2c(nc3c2c(=O)[nH]c(=O)n3C)O1 (stereo unspecified)	inconclusive: 1.2 nM
c1ccc(-c2nc3ccccc3nc2N2CCOCC2)cc1	active: 240 nM
CC(=O)c1sc(NC(=O)C2(F)C(F)(F)C(F)(F)C(F)(F)C(F)(F)C2(F)F)nc1C	inconclusive: 1.6 nM
CCOC(=O)C1=C(c2ccccc2)NC(SCC(=O)Nc2ccccc2C)=C(C#N)C1c1ccco1 (stereo unspecified)	inconclusive: 5 nM
CCC(=O)Nc1cc(-c2nn(C)c(=O)c3ccccc23)ccc1OC	inactive
CCOC(=O)c1csc(NC(=O)CSc2nnc(C3CC3)n2C)n1	inconclusive: 1.6 nM
c1ccc(C(c2nnnn2C2CCCCC2)N2CCc3ccccc3C2)nc1 (stereo unspecified)	active: 140 nM
COc1ccc(-c2nc3cnc(N4CCOCC4)nc3n(C)c2=O)cc1	inconclusive: 8.6 nM
